Experimental data as given in US11725027B2, “Hypersensitive response elicitor-derived peptides and use thereof” (priority 2016, dated 2023).
Not every detail of the peptide structures is certain; ends, links or a residue may be inferred. Marks after values point to notes of the source that are not given here. No end group written: not given here.

Legend:
[1] = system: soybean cyst nematode Heterodera glycines eggs; experiment: Nematode egg hatching in root exudate of P5-coated soybean seeds; conditions: exudate of P5-coated soybean seedlings, 300 eggs per well, 3 days; mock-treated 40
corn = experiment: Drought resistance in corn (greenhouse, spray); assay type: in vivo; conditions: corn under drought, 2.0 ug/ml, vs untreated control
Experimental: The effectiveness of peptide treatment in reducing drought stress was assessed in corn and soy. 3.5 inch pots were filled with Sunshine #1 soil (SunGro Horticulture), fertilized with a 20-10-20 mixture. The soil was soaked and drained overnight. Seeds (either corn or soy, manually inspected to ensure uniform seed size) were planted at a depth of 1 inch for germination. Plants were grown in a greenhouse under 16 hour light days at >70° F. and 8 hour dark nights at >65° F. Prior to drought conditions, the plants were well-watered.
When the plants reached the V1 stage, plants were culled to achieve a uniform height (abnormally large and small plants were removed). Plants were then randomly assigned to control (spray without peptide) or treatment (spray with peptide) groups and heights were measured. Peptide was made up in a solution of 0.2 ug/ml or 2 ug/ml in distilled water+0.01% Tween-20, and applied as a fine mist from a spray bottle until the solution drips from the leaves. After the peptide solutions were dried, the plants were again randomized in a randomized complete block design. Drought stress was initiated after the peptide treatment. This was caused by maintaining the water level at 25-50% of the maximum capacity for water (capacity was decided as the weight of the pot filled with saturated soil minus the weight of the filled pot prior to adding water).
The drought test phase ended after 2-3 weeks. At that time, the plant height was again measured and the growth rate was calculated as the difference between this and the previously-recorded height. The above-ground part portions of the plants were harvested and weighed. The above-ground portion was also dried in an oven at 70° C. for 72 hours and a dry weight was obtained. All calculations were compared with matched untreated control plants.

soybean cyst nematodes = experiment: Seed coating with peptides compared with chemical nematode agents in soy; assay type: in vivo, soy (Sheyenne variety)
Experimental: Additional experiments will be performed to examine the effectiveness of peptide treatment in suppressing the growth of soybean cyst nematodes using one or more of the other peptides in Tables 1 and 2, including, without limitation, P5-21 and P5-25. See Example 8 below.
The effectiveness of peptides was tested in soy (Sheyenne variety) and compared with current anti-nematode chemicals. Briefly, soy seeds were commercially coated with peptide at rates of 10, 30, or 90 ug peptide per seed or with chemical nematicides Avicta Complete, Clariva Complete, Poncho/Votivo, or Velum total. 3 soy seeds were planted in a mixture of topsoil and sand (pasteurized) in a 10 cm diameter pot and were inoculated with 1500 eggs per pot at planting. 10 replicate pots were used per experimental condition. After plants emerged from the soil, the plants were thinned to one plant per pot. Plants were harvested about 45 days after planting. The following measures were taken: (1) Fresh shoot and root weights; (2) Root condition graded 0-10 for the presence of disease; (3) Nematode cysts per plant; (4) Nematode eggs per plant; and optionally (5) Male nematodes. The following values were calculated: eggs per gram of root, cysts per gram of root, and eggs per cyst.

[2] = system: tobacco mosaic virus (TMV); experiment: Induction of resistance to tobacco mosaic virus in tobacco; assay type: in vivo; conditions: % decline in TMV lesions vs UTC; for Effectiveness Covered (%): covered leaf (systemic response); for Effectiveness Uncovered (%): uncovered leaf (local response)
Experimental: Peptides were tested for the induction of resistance to tobacco mosaic virus (TMV) in tobacco. Briefly, three tobacco plants at 6-8 weeks old were selected per group (samples and controls). The bottom-most leaf of the plant was covered and the plant was sprayed with a solution of water (untreated control—UTC), peptide, or Proact (positive control). The spray was applied until the leaves were fully wetted, indicated by liquid dripping from the leaves. The plants were then allowed to dry and the leaf covering was removed.
Three days post-treatment, the previously-covered leaf and a leaf on the opposite side of the plant were then lightly dusted with diatomaceous earth and 20 ul of a 1.7 ug/ml solution of purified tobacco mosaic virus was applied. The TMV solution was then spread across the leaf surface by lightly rubbing solution and the diatomaceous earth across the surface of the leaves. Two minutes after inoculation, the diatomaceous earth was rinsed off the leaves with water. 3 days after TMV inoculation, the leaves were scored based on the number of TMV lesions observed. The leaf was also scored for signs of the hypersensitive response, including yellowing and wilting of the affected leaves.
Effectiveness described in Table 6 refers to the % decline in TMV lesions on treated vs UTC plants. A reduction of TMV on covered leaves indicates a systemic immune response in the plant while reduction on uncovered leaves indicates a local response. Asterisks indicate that the P-value derived from a T-test was <0.05.

[3] = system: Nicotiana tabacum cultivar xanthi plants; experiment: Hypersensitive Response (HR) induction in tobacco leaves; assay type: in vivo; parameters: key: Plants are considered HR-positive (“HR+”) if they exhibit wide-spread macroscopic cell death visible to the naked eye, accompanied by wilting and browning of the affected tissue within 48 hours; Plants are considered HR-negative (“HR−”) if they exhibit no discernible wilting or tissue death observable by naked eye; conditions: tobacco leaf infused with 500, 250, 125, 62.5, 31.25 μg/ml peptide solutions, scored over 48 hours
From the text: A property of a peptide to elicit a hypersensitive response, or not, upon infiltration or application of the peptide to plant tissues can be measured by applying the peptide in dry powder form or in solution form to a plant, particularly though not exclusively a plant leaf.
The minimal eliciting sequence derived from was developed based on the sequence of the hrex gene from Xanthomonas campestris pv. pelargonii. A number of truncated and mutated sequences were synthesized and tested for Hypersensitive Response induction (results in Table 4). HR in tobacco was tested as described in Wei, Science 257:85-88 (1992), which is hereby incorporated by reference in its entirety. Briefly, peptides were dissolved at a concentration of 500 μg/ml in aqueous solution. Four serial dilutions were performed with an equal volume of water, yielding peptide samples at 500, 250, 125, 62.5, 31.25 μg/ml peptide solutions. Nicotiana tabacum cultivar xanthi plants were used at 5-7 weeks old (preflowering). Leaves were lightly punctured with a toothpick in a middle leaf panel. Peptide solutions were then infused via needle-less syringe into the wound, filling the panel. Each peptide sample was infused into a leaf of 2 different plants. The leaves were observed and scored over the next 48 hours for withering and browning, lesions typical of programmed cell death. These studies had […] main goals: (1) determine the minimal sequence sufficient for HR elicitation (2) increase the solution stability of the peptides; (3) make disruptive mutations to verify the residues which are most important for HR elicitation; (4) make conservative mutations to identify the degree of specificity for particular amino acids.

[4] = system: root knot nematode (Meloidogyne incognita); experiment: Root knot nematode (RKN) resistance in tomato; assay type: in vivo, 'Rutgers' tomato; conditions: spray 46.7 ug/ml
[5] = system: soybean cyst nematodes (SCN); experiment: Suppression of soybean cyst nematodes in soy, spray treatment; assay type: in vivo; conditions: 30 days after 4,000 SCN eggs
Corn hybrid seeds 639STX = experiment: Corn drought performance in the field (seed coating); assay type: in vivo; conditions: for number of rows per corn ear: UTC 12.3; for mass of the corn ears: UTC 90.1 grams per ear; for increase in yield: untreated control 123.6 Bu/Ac
[6] = soy seed coating, 10 ug peptide per seed
[7] = soy seed coating, 30 ug peptide per seed
[8] = soy seed coating, 90 ug peptide per seed

For SAGSEQQLDLLLMFIMMMLQQ [Peptide P5], the “average number of hatched nematodes” value [1] was 30, the “increase in fresh weight” value (corn) was 4.01% and the “increase in the dry weight” value (corn) was 10.04%. For the same sequence, the “increase in the growth rate” value (corn) was 3.09%, the “reduction in the number of male nematodes” value (soybean cyst nematodes; soy seed coating) was about 30% and the “reduction in cysts or eggs” value (soybean cyst nematodes; soy seed coating, 10, 30, or 90 ug peptide per seed) was “did not exhibit a significant reduction”. The “Effectiveness Covered (%)” value ([2]; spray 10 ug/ml) was 50%, the “Effectiveness Uncovered (%)” value ([2]; spray 10 ug/ml) was 68* % and the HR [3] was “+”. The “root gall rating classification” value ([4]; about 60 days post-inoculation, untreated plants 4) was 2-3, the “egg counts (number of RKN eggs per gram of root), average” value ([4]; untreated plants 165,600) was 52,000 and the “decrease in egg counts” value ([4]; vs untreated plants) was 69%. For the same sequence, the “average cysts per plant” value ([5]; trial #1, spray 2.0 ug/ml, control 133.5) was 69.7 cysts per plant, the “average cysts per plant” value ([5]; trial #2, spray 2.0 ug/ml, control 104.9) was 54.5 cysts per plant and the “number of rows per corn ear” value (Corn hybrid seeds 639STX; 12 ug/seed) was 12.7. The “mass of the corn ears” value (Corn hybrid seeds 639STX; 12 ug/seed) was 104.8 g, the increase in yield (Corn hybrid seeds 639STX; 12 ug/seed) was 20.2 Bu/Ac and the “number of rows per corn ear” value (Corn hybrid seeds 639STX; 35 ug/seed) was “remained unchanged”. The “mass of the corn ears” value (Corn hybrid seeds 639STX; 35 ug/seed) was 98.4 g, the increase in yield (Corn hybrid seeds 639STX; 35 ug/seed) was 11.4 Bu/Ac and the “number of rows per corn ear” value (Corn hybrid seeds 639STX; 105 ug/seed) was 13.1. The “mass of the corn ears” value (Corn hybrid seeds 639STX; 105 ug/seed) was 104.5 g and the increase in yield (Corn hybrid seeds 639STX; 105 ug/seed) was 19.7 Bu/Ac.

With LDLLLAFIAAALEEEEEE [Peptide P5-9] the HR [3] was “-”.

SEEQLELLLAFIAAALQQEE [Peptide P5-21] was tested, and the “reduction in cysts per gram root” value (soybean cyst nematodes; [6]) was 91%, the “reduction in eggs per gram root” value (soybean cyst nematodes; [6]) was 93% and the “reduction in cysts per gram root” value (soybean cyst nematodes; [7]) was 80%. The “reduction in eggs per gram root” value (soybean cyst nematodes; [7]) was 74%, the “reduction in cysts per gram root” value (soybean cyst nematodes; [8]) was 86% and the “reduction in eggs per gram root” value (soybean cyst nematodes; [8]) was 92%. For the same sequence, the “Effectiveness Covered (%)” value ([2]; spray 20 ug/ml) was 81* %, the “Effectiveness Uncovered (%)” value ([2]; spray 20 ug/ml) was 94* % and the HR [3] was “+”.

In the case of QLELLLAFIAAALQQ [Peptide P5-5], the “Effectiveness Covered (%)” value ([2]; spray 20 ug/ml) is reported as 97* %, the “Effectiveness Uncovered (%)” value ([2]; spray 20 ug/ml) is reported as 84* % and the HR [3] is reported as “+”.
